The full ranking holds about 33,000 sequences; the median of “E-score (-0.5 to 0.5)” is about -0.0014, and the highest 2% start at about 0.25. This is one part of the list.
target: T1, Cad1 (UniProt P24813); experiment: PBM E-score (8-mer binding enrichment) (E-score (-0.5 to 0.5)); higher = stronger / more preferred TF binding; conditions: protein concentration: 100 nM; construct: GST-full length
T1 sequence: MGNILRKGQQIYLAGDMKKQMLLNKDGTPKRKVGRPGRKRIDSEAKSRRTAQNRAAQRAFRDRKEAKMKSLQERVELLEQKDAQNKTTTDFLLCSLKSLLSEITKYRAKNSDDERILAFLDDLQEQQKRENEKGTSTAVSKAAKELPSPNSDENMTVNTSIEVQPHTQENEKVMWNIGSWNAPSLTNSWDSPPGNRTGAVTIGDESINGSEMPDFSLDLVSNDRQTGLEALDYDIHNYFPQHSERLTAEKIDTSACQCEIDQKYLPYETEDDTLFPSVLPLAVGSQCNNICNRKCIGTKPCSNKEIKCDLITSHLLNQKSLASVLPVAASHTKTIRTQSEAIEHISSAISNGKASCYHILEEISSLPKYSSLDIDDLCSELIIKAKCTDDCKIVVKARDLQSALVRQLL
How it was run: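 For each ungapped eight-base word taken together with its reverse complement, the Universal PBM Analysis Suite assigned an E-score. Binding data came from GST-tagged yeast transcription factors, applied at about 100-200 nM, on universal all-10-mer Agilent arrays made double-stranded by primer extension. Fluorescent anti-GST marked bound protein, and scans were normalised with masliner.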

Row | Sequence | PBM E-score
1 | TAGAAATA | 0.0668
2 | AGTGAACA | 0.121
3 | TGGTCGAA | -0.175
4 | AGAATGCC | -0.0316
5 | CCGGCAAA | 0.138
6 | GTAATAAA | 0.187
7 | AGCACAAT | -0.0595
8 | ACACCATC | 0.0408
9 | GTCAGTTA | -0.0253
10 | CATGTGGG | 0.0224
11 | CACAGTGA | 0.0585
12 | AACGGTTC | 0.094
13 | AAAGACAA | 0.166
14 | ACCTGTTC | -0.0841
15 | ACCGACGT | 0.183
16 | ATCTACTG | 0.0914
17 | GCACGTTA | -0.0382
18 | ACCATAAT | 0.101
19 | CCCAGGCG | -0.201
20 | CTCTTCTC | -0.258
21 | CATTCACA | 0.0696
22 | ACTTGCTC | -0.2
23 | CATGTTTA | 0.0394
24 | TCAGGGAA | -0.0349
25 | TCTTGCCA | -0.0865

Row | Sequence | PBM E-score
26 | GCGCCATA | -0.00134
27 | AGTTTGCA | -0.0335
28 | AAATGCAG | 0.00669
29 | CCGATCCC | -0.218
30 | CGTCGTAA | -0.0847
31 | CACAGATC | -0.0249
32 | AATGGGTC | -0.202
33 | AAATTCTG | 0.188
34 | AAGATTGG | -0.0113
35 | GGCACGAC | -0.129
36 | AGAGACTA | -0.224
37 | CACAGCTC | -0.0387
38 | CAACTTCC | -0.0977
39 | ACCTAGTG | 0.0789
40 | CTACATAG | -0.0219
41 | CTGATCCC | -0.169
42 | ACCACGAC | 0.0193
43 | GCTTGCGA | 0.118
44 | ATTCATTG | 0.172
45 | AAGCTCAC | 0.00427
46 | AGATGGCT | -0.127
47 | CCCCTCGG | -0.288
48 | ATCACATG | 0.00263
49 | ACAACGGA | 0.241
50 | ATAAGTGA | -0.0226

Row | Sequence | PBM E-score
51 | AGCGTAGA | -0.292
52 | AGCTGCCC | 0.111
53 | AATCAGGA | 0.17
54 | GCCAATAC | 0.0227
55 | GACCCGCC | 0.0402
56 | CTTTGAGA | 0.0374
57 | ATTCCGCA | -0.0887
58 | AACCCATG | 0.118
59 | AAATGTTC | -0.00058
60 | CTAAAAGC | -0.0963
61 | CCCCCTTC | -0.476
62 | CAACATTC | -0.0255
63 | TGCCACAA | 0.0765
64 | CGTTACGC | 0.0375
65 | TAACGGAA | 0.212
66 | CACTTGGG | -0.164
67 | ACCCGGGT | -0.0797
68 | AGCGCTTC | 0.122
69 | CAAAATGG | 0.012
70 | CCCGAACG | -0.0332
71 | ATGGCAAG | -0.0516
72 | AGTATCAG | -0.0196
73 | AAGAGCAT | -0.0967
74 | ACATGGTG | -0.0624
75 | CTCGAGGA | 0.0981

Row | Sequence | PBM E-score
76 | ACGGGACC | -0.197
77 | ACGTTATG | 0.0915
78 | CATGGCTA | 0.0161
79 | GCTTATTA | 0.369
80 | TCGCCTAA | 0.0267
81 | CCTAACAG | -0.023
82 | GACGGGCA | -0.122
83 | CGCAGTAC | -0.0866
84 | AACTCGAA | 0.0555
85 | AGCTCATC | -0.208
86 | GATGCAAC | -0.15
87 | CGTTCAAC | 0.202
88 | CTTGCTGC | -0.232
89 | ACACGAAG | 0.0492
90 | AGGAAAGG | -0.323
91 | ACCGTGAG | -0.158
92 | CTAGATCA | -0.11
93 | TTAAGGAA | 0.0663
94 | GTACACCA | -0.0543
95 | CAGACTCA | -0.0165
96 | ACTCGCCG | 0.023
97 | CATCCCGC | -0.0517
98 | GGACGATA | 0.0381
99 | CGTCGCGC | 0.0379
100 | ATACGAGG | -0.0819

Row | Sequence | PBM E-score
101 | AGCCGCGA | 0.0704
102 | ATGAGCGC | 0.232
103 | AAAGATTA | 0.152
104 | CGCTCTTC | -0.209
105 | GATTCCGA | 0.0654
106 | AAACTAGT | 0.0646
107 | GGACAGAA | 0.0717
108 | CCATTTGA | 0.0783
109 | CGTGCTAA | 0.0651
110 | AATCTTGT | 0.122
111 | GTCGCAGA | 0.141
112 | ACCCTCCC | 0.133
113 | GATCGACA | 0.0809
114 | ACGTCAAC | -0.0674
115 | TACTCCAA | -0.122
116 | AACGAAGG | -0.311
117 | TCTTCGCA | 0.193
118 | CTTCAGTC | -0.127
119 | GATCAGGC | 0.00244
120 | ATTGAGTG | 0.0114
121 | AGTCTAGA | -0.0977
122 | TCCAAGGA | -0.19
123 | ATCGCAAA | 0.13
124 | GAGCACTA | -0.099
125 | GCGCTGGA | 0.0157

Row | Sequence | PBM E-score
126 | TATTGCCA | -0.0673
127 | ATTCGCTC | 0.117
128 | CGAAGTCA | 0.0241
129 | AAGATGGA | 0.00363
130 | GCTGCCCA | -0.0743
131 | AGCGTTGG | 0.056
132 | GCTAATCA | 0.215
133 | ACAGCTCC | -0.0138
134 | GATGTTCC | 0.00466
135 | ATTCGTAC | 0.173
136 | AAGAGATA | -0.00559
137 | TACAATCA | 0.0688
138 | AAATGTAG | 0.00878
139 | CAGAGGTA | -0.015
140 | GATGCCGC | -0.144
141 | GGATCCAC | 0.0158
142 | GGGCTCAA | -0.18
143 | AATTCGCA | 0.0912
144 | CGAGCTCG | 0.227
145 | GGCGTAGA | -0.156
146 | CTAACACC | -0.0338
147 | CGCGTAGC | -0.0194
148 | CCCTACGG | -0.247
149 | GATCACGA | 0.0523
150 | CTAGAATA | 0.11

Reformatted: results already given.
Row,Sequence,PBM E-score
126,TATTGCCA,-0.0673
127,ATTCGCTC,0.117
130,GCTGCCCA,-0.0743
143,AATTCGCA,0.0912
150,CTAGAATA,0.11

(cont.)

Row | Sequence | PBM E-score
151 | ATACTCGC | 0.188
152 | GACACTAC | -0.00121
153 | CCTTCAGC | 0.0456
154 | CCGCGGAG | -0.00921
155 | CAGACATA | 0.0507
156 | ATACATCA | 0.139
157 | ACTAGCGA | -0.0405
158 | AAACGGCA | -0.131
159 | GTCTTCAA | -0.0567
160 | GGGGAACC | -0.258
161 | TGGTCACA | 0.0346
162 | CTGACCAA | 0.276
163 | AGCAACCT | -0.149
164 | GCACCCCC | -0.332
165 | ACCTGACG | -0.173
166 | ACCGGGTG | -0.00614
167 | ACCGTGAT | 0.0584
168 | ACCACGTC | -0.0266
169 | CTCTCGTA | -0.149
170 | AGCAGTAC | -0.00081
171 | GCAATTCC | 0.0267
172 | ACCACATC | -0.121
173 | ATGTTGAG | 0.0493
174 | AACTTTGG | -0.113
175 | AACAGGTG | -0.18

Reprinted at random: six records from the list.
Row | Sequence | PBM E-score
167 | ACCGTGAT | 0.0584
170 | AGCAGTAC | -0.00081
175 | AACAGGTG | -0.18
163 | AGCAACCT | -0.149
173 | ATGTTGAG | 0.0493
155 | CAGACATA | 0.0507

Additional entries.

Row | Sequence | PBM E-score
176 | CCTCAGAC | -0.12
177 | ACAATACC | 0.154
178 | GGGGTACA | -0.168
179 | CCAAATCG | 0.0163
180 | GCAATGGA | -0.0124
181 | ACTACCGG | -0.231
182 | CTGGGGCC | -0.291
183 | AAACAAGT | -0.06
184 | AAGTGGCA | -0.0104
185 | GATGCCCC | -0.318
186 | AGCCCCGC | -0.0779
187 | CGCTAATA | 0.118
188 | GTTAAACA | 0.166
189 | CTGCCTCA | -0.232
190 | GATTAGCA | 0.217
191 | ATTGACCA | -0.0558
192 | TCGCAACA | 0.012
193 | ACTGCTTA | 0.132
194 | CACCATTA | -0.025
195 | ACCACAGA | -0.0731
196 | AAATCGTC | 0.0296
197 | AGAGCCAG | -0.239
198 | CATCTCGG | 0.0454
199 | ATATGACG | 0.0364
200 | CTAAAGAA | 0.122

From entry 193 as far as 198, copied from above:
Row | Sequence | PBM E-score
193 | ACTGCTTA | 0.132
194 | CACCATTA | -0.025
195 | ACCACAGA | -0.0731
196 | AAATCGTC | 0.0296
197 | AGAGCCAG | -0.239
198 | CATCTCGG | 0.0454

Additional results follow:

Row | Sequence | PBM E-score
201 | ACCGCGGG | 0.186
202 | AACGCTTC | -0.0949
203 | AACCACCA | -0.0697
204 | CTCTAGAC | -0.168
205 | ACATACTA | 0.111
206 | ATGAAAAG | 0.0321
207 | AGCCGCAT | -0.0263
208 | ACGTCCCT | 0.0045
209 | ACGATAAA | 0.0169
210 | ATATCTGC | 0.0177
211 | ACTGCCCG | -0.0199
212 | CTCAAACA | 0.0329
213 | TAGGCCCA | -0.0715
214 | AGAGGCTG | -0.39
215 | AAAGTAGG | -0.00063
216 | GTTGACTA | 0.0212
217 | ACATGTAA | 0.196
218 | AACTCTCT | 0.0449
219 | GCCTTGGA | 0.0419
